# Data taken from PMC7791724.
# These are yes or no findings as the source states them, for the method shown. Binding seen in cells or lysates may run through a third protein. Some binding calls cover weakened binding; strength is not graded here.
# T1: wild type AGR2 (anterior gradient-2) (human), O95994
# T1 chain: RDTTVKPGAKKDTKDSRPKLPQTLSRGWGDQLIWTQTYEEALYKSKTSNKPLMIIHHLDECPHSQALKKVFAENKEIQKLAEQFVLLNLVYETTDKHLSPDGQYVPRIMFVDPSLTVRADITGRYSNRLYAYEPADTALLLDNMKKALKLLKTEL
# B1: wild type AGR2 (anterior gradient-2), O95994 21-175 (protein)
# chain: T1 chain
# Legend:
# [1] = molecular target: AGR2 deletion mutant lacking the C-terminal KTEL motif (human) (UniProt O95994); test: cross-linking; DSP-mediated chemical crosslinking of AGR2 in cell lysates and culture supernatant of PANC-1 stable cells, non-reducing (and reducing) SDS-PAGE, Western blot with anti-AGR2
# [2] = molecular target: T1, wild type AGR2 (anterior gradient-2) …; test: as above; details: remark: other sources report otherwise
Molecule,binding [1],binding [2]
AGR2 deletion mutant lacking the C-terminal KTEL motif (from UniProt O95994 21-175),binds,
B1,,binds
